# Measured data: PubChem BioAssay AID686937 (Drosophila RNAi Screening Center, 2013)
# Test: 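Genes whose loss weakens secretory pathway function in fly cells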 (primary screen)
# System: Drosophila S2 cells expressing secreted horseradish peroxidase
# Reagent: long dsRNA against Drosophila genes
# Timing: about 5.5 days (5 days dsRNA, then 12 h reporter induction)
# Challenge: reporter expression induced after 5 days of dsRNA, read 12 h later; inducer not stated
# Measurement: 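After 5 days of dsRNA and 12 h of reporter induction, medium peroxidase read by chemiluminescence and scored as per-plate z-score; higher values mean more reporter released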
# Reading the numbers: z-score: higher = more reporter secreted into medium
# The screen tested about 23,000 reagents; shown is a random part of those that have a named target and a result. 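Reduced-secretion tags in replicate 1 do not always agree with the z-scores; no criterion for assigning the tags was given.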 The numbers tell different reagents against one gene apart. Further read-outs or replicates are left out here. No sequences are given here. Not given: the amount of reagent.
target gene,reagent no.,"z-score, replicate 1","z-score, replicate 2","z-score, replicate 3","z-score, replicate 4"
CG16786,1,0.27,0.46,,
Orc5,1,0.4,0.22,,
Ca-alpha1T,1,0.32,0.13,,
Ca-alpha1T,2,0,0.1,-1.3,0.26
Ca-alpha1T,3,0.26,0.57,,
Ca-alpha1T,4,0.15,0.42,,
Ca-alpha1T,5,0.04,-0.45,,
Fak,1,0.11,0.34,,
CG5177,1,-0.04,-0.04,,
CG17032,1,0.56,0.19,,
Or23a,1,-0.03,-0.01,,
CG14007,1,0.35,0.11,,
GM130,1,-0.19,0.28,,
CG15254,1,-0.02,0.64,0.24,0.11
CG15254,2,-0.38,-1.01,,
snf,1,-2.32,-0.22,,
CkIIbeta2,1,0.05,0.09,,
bnl,1,0.54,0.52,,
bnl,2,-0.79,-0.24,,
insv,1,0.09,0.14,,
TBPH,1,-0.04,0.15,,
CG42254 (retired record),1,0.08,0.18,,
Rtca,1,0.19,0.29,,
Trm7-32,1,0.42,0.46,,
Phlpp,1,0.06,0.26,,
Phlpp,2,0.01,-0.56,,
CG33268,1,0.4,0.33,,
CG32816,1,0.37,-0.08,,
salr,1,-0.28,-0.24,,
CG4691,1,0.43,0.05,,

Already shown: entries from further up.
target gene,reagent no.,"z-score, replicate 1","z-score, replicate 2","z-score, replicate 3","z-score, replicate 4"
CG15254,1,-0.02,0.64,0.24,0.11
CG15254,2,-0.38,-1.01,,
snf,1,-2.32,-0.22,,
CkIIbeta2,1,0.05,0.09,,
bnl,1,0.54,0.52,,

The listing continues.
target gene,reagent no.,"z-score, replicate 1","z-score, replicate 2","z-score, replicate 3","z-score, replicate 4"
Arc1,1,-0.71,0.63,0.36,-0.12
Ugt316A1,1,0.21,0.15,,
Bdp1,1,0.15,0.14,,
RNaseX25,1,0.3,0.22,,
Or98P,1,0.08,-0.1,,
Gr9a,1,0.13,0.1,,
CG17991,1,0.1,0.36,,
CG12010,1,0.1,0.08,,
Ku80,1,0.02,0.23,,
Sema5c,1,0.22,0.13,,
CG1896,1,0.3,0.15,,
CG11598,1,0.4,0.56,,
Gr59e,1,0.07,-0.05,,
Amun,1,-1.63,-1.84,,
SAK,1,0.19,0.37,,
Rlb1,1,0.34,0.22,,
btd,1,0.3,0.2,,
Rok,1,0.17,0.22,,
Cpsf5,1,0.44,0.71,,
CG34300,1,-0.11,0.45,,
CG7213,1,0.28,0.39,,
Rac2,1,-0.64,-0.11,,
Npc1b,1,0.25,0.25,,
Pif1A,1,0.47,0.55,,
Pif1A,2,0.36,0.42,,
CG12883,1,0.21,0.33,,
CG17026,1,0.39,0.18,-0.94,-0.5
Tcs5,1,0.24,0.38,,
CG32847,1,-0.93,0.63,,
CG15084,1,0.21,0.4,0.13,0.3
CG15084,2,0.66,-0.54,,
Prosbeta2R1,1,0.19,-0.08,,
CG13300,1,0.66,-0.43,,
Grl36a,1,-0.65,-0.53,,
CG33189,1,-0.09,-0.2,,
l(2)k01209,1,0.36,0.18,,
Cog3,1,-1.59,-1.18,,
Ser,1,0.34,0.26,,
CG34124,1,0.23,0.33,,
Gr5a,1,0.29,-0.03,,
CG32655,1,0,0.03,,
ari-2,1,0.32,0.31,,
muc,1,0,0.16,,
muc,2,0.07,-0.13,,
Orc2,1,0.21,0.22,,
CG2991,1,0.14,0.27,,
CG14851,1,0.37,0.61,,
CG14851,2,0.41,-0.73,,
rasp,1,0.23,-0.02,,
Trap1,1,0.11,0.43,,
CG34001,1,0.31,0.29,,
Ripalpha,1,0.08,0.25,,
